From publication doi:10.1101/2022.07.21.500952

Target: TAP-tagged Wdr70 (fission yeast) (fission yeast (S. pombe))
Experiment: affinity purification with mass spectrometry

B1: Pcu4 (Cullin 4 homolog) (protein, UniProt O14122 1-734)
chain: MPPEAKRIVVKGFDPRKSRQRQETYYVTMIDRLNMALQVVMAGLGLKTGYQELYSGVENLTRADQASRCFNILQHHMSSGIQLLKDSAESFIQLEGTETDTNACTVVVGCWNKWLERVEIVQNIFYYMDKTFLSHHPDYPTIEELSLSLFREKLMAVKNIQIPFLNSLLQSFENLHSSKSTDHAYLQDAMLMLHRTEMYSSVFVPMYLVMLSRFYDTESSQKIQELPLEEYLEYAMSSLEREDAYVEKFDIVRDKKSIRETVQRCLITSHLDTLTKGISQFIEKRDAHSCKLLYALLQFNHETEYLIQPWSDCLVDVGFKLVNDESKDDTLVQELLSFHKFLQVVVDESFLHDETLSYAMRKAFETFINGAKGSQREAPARLIAKYIDYLLRVGEQASGGKPLKEVFSEILDLFRYIASKDIFEAYYKLDIAKRLLLNKSASAQNELMLLDMLKKTCGSQFTHSLEGMFRDVNISKEFTSSFRHSKAAHNLHRDLYVNVLSQAYWPSYPESHIRLPDDMQQDLDCFEKFYLSKQVGKKISWYASLGHCIVKARFPLGNKELSISLFQACVLLQFNNCLGGEGISYQDLKKSTELSDIDLTRTLQSLSCARIRPLVMVPKSKKPSPDTMFYVNEKFTDKLYRVKINQIYLKEERQENSDVQEQVVRDRQFELQASIVRVMKQKEKMKHDDLVQYVINNVKDRGIPLVSDVKTAIEKLLEKEYLEREDNDIYTYVT
With B1 the binding was “binds”.

B2: Rpn13b (fission yeast ADRM1 homolog) (protein, UniProt Q9USM1 1-388)
chain: MESVFGRVRNETSERGKYGLVSVKAGKLQRKPGTNILQADHRKGVIYMQMASDELLHFYWKERARVSREVEDDYIIFPEEAEFIKIDECTTGRVYALKFKSSSQIHFYWMQEYSDEKDKETASLINQLIADPVNTTRTINSHNNSSSRGTDDSSTSQLLQLFGAASQDALQDFNWEVLSPTAEAPAILPRFPNVNESANMYRASSESNLNGPHATAGENGEDHEEATASPLDENIDYTHSRTLELLEQLQPLILNETTFVEPFSIDRESHRVITHPRVYPKIFPHSPSDLLRISGRAELSENRDFFKHLSSLMEAVAKPESESLREICNLSLEQVQSASGAELFLHALYDRLVNEGVIVISHITQEGSDGEVEEEGDVEMRESNEKDE
With B2 the binding was “binds”.

No constants are given. Whether binding was seen depends on the method and setting. Binding seen in cells or lysates may run through a third protein. A yes stands for co-enrichment or nearness to the bait. Other partners may have been found.
